Laboratory results taken from PMC7431862.
Results are given in words; binding and its absence hold for the method and conditions named. Binding seen in cells or lysates may run through a third protein. A result given as binding can be weak or reduced; the word gives no strength.

Target: T1, CTCF (endogenous, rat Schwann cells) (rat (endogenous in primary rat Schwann cells)) (UniProt Q9R1D1)
T1 sequence: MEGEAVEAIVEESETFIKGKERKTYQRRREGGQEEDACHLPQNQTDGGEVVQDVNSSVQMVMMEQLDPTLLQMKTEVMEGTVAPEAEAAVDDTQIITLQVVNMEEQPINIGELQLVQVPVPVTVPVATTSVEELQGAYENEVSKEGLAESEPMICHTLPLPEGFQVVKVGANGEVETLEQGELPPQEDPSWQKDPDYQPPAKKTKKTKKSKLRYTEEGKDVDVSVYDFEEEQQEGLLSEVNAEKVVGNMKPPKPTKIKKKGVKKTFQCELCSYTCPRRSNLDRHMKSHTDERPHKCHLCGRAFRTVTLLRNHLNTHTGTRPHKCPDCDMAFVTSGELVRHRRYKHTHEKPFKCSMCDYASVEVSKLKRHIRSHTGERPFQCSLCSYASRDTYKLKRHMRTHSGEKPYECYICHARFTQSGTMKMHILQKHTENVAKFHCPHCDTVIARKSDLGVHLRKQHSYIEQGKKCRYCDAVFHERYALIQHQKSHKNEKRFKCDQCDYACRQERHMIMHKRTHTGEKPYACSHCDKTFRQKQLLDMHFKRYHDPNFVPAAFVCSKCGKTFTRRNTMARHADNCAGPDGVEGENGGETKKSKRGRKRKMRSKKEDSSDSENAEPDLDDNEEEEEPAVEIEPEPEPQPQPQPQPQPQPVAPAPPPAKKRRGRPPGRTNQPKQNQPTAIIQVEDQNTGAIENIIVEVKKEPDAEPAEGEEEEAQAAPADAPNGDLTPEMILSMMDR
Experiment: co-IP; endogenous proteins; differentiating rat Schwann cells lysed in NP-40 buffer (170 mM NaCl, 10 mM EDTA, 50 mM Tris pH 7.4, 50 mM NaF, 0.5% NP-40); 300 ug lysate with 2 ug IgG or anti-CTCF antibody, Protein A/G beads; Western blot for SUZ12

binding: binds
Substance: SUZ12 (endogenous, rat Schwann cells)
